# Values joined by “and” are separate entries in the source; they are usually repeats but may differ in a detail not shown here. Identical values can stand only once. This continues a long series; more values of the same kind are listed elsewhere.
# Tests used:
# [1] = system: MCF7-CDK4^WT/D99N (CL4) cells; assay: IncuCyte confluency growth, heterozygous CDK4 D99N clone CL4; assay type: cell-based, human
# Protocol: (§1) To determine the IC50 of drug treatments on growth, cells were seeded in 96-well culture plates. Two days after seeding, the cells were treated with increasing concentrations of drugs and incubated for 4 days. Cell number was determined using the SRB assay (Skehan et al, [1990]), and IC50 values were calculated using non-linear regression curve fitting in GraphPad Prism v10. For all other growth experiments, cells were seeded into 96-well plates, and appropriate drugs were added 2 days after seeding. Cells were then incubated in an IncuCyte Zoom live-cell imager, with cell confluency measured every 6 h. Cell doubling times were determined by non-linear curve fitting (exponential growth equation) in GraphPad Prism v10.
# [2] = system: MCF7-CDK4^D99N (CL1) cells; assay: IncuCyte confluency growth, homozygous CDK4 D99N clone CL1; assay type: cell-based, human
# Protocol: as §1
smiles,measurement,setting,value
CC(=O)c1c(C)c2cnc(Nc3ccc(N4CCNCC4)cn3)nc2n(C2CCCC2)c1=O [Palbociclib],% Confluency,"[1]; MCF7 CDK4 WT/D99N CL4, 50nM Palbociclib, 120 Hours",66.64% and 78.14% and 82.99%
same,% Confluency,"[1]; MCF7 CDK4 WT/D99N CL4, 50nM Palbociclib, 132 Hours",76.88% and 86.20% and 95.31%
same,% Confluency,"[1]; MCF7 CDK4 WT/D99N CL4, 50nM Palbociclib, 144 Hours",88.78% and 88.02% and 99.54%
same,% Confluency,"[1]; MCF7 CDK4 WT/D99N CL4, 50nM Palbociclib, 156 Hours",97.35% and 91.36% and 99.84%
same,% Confluency,"[1]; MCF7 CDK4 WT/D99N CL4, 50nM Palbociclib, 168 Hours",99.58% and 95.17% and 99.79%
same,% Confluency,"[1]; MCF7 CDK4 WT/D99N CL4, 50nM Palbociclib, 180 Hours",99.96% and 97.94% and 99.94%
same,% Confluency,"[1]; MCF7 CDK4 WT/D99N CL4, 50nM Palbociclib, 192 Hours",99.99% and 99.20%
same,% Confluency,"[1]; MCF7 CDK4 WT/D99N CL4, 50nM Palbociclib, 204 Hours",99.98% and 99.69%
same,% Confluency,"[1]; MCF7 CDK4 WT/D99N CL4, 50nM Palbociclib, 216 Hours",99.98% and 99.82% and 99.94%
same,% Confluency,"[1]; MCF7 CDK4 WT/D99N CL4, 50nM Palbociclib, 228 Hours",99.94% and 99.85% and 99.93%
same,% Confluency,"[1]; MCF7 CDK4 WT/D99N CL4, 50nM Palbociclib, 240 Hours",99.95% and 99.87%
same,% Confluency,"[1]; MCF7 CDK4 WT/D99N CL4, 50nM Palbociclib, 252 Hours",99.94% and 99.88% and 99.86%
same,% Confluency,"[1]; MCF7 CDK4 WT/D99N CL4, 100nM Palbociclib, 120 Hours",64.25% and 78.80% and 72.42%
same,% Confluency,"[1]; MCF7 CDK4 WT/D99N CL4, 100nM Palbociclib, 132 Hours",72.93% and 86.07% and 87.54%
same,% Confluency,"[1]; MCF7 CDK4 WT/D99N CL4, 100nM Palbociclib, 144 Hours",85.75% and 88.44% and 96.06%
same,% Confluency,"[1]; MCF7 CDK4 WT/D99N CL4, 100nM Palbociclib, 156 Hours",96.05% and 92.25% and 98.68%
same,% Confluency,"[1]; MCF7 CDK4 WT/D99N CL4, 100nM Palbociclib, 168 Hours",99.30% and 96.26% and 98.93%
same,% Confluency,"[1]; MCF7 CDK4 WT/D99N CL4, 100nM Palbociclib, 180 Hours",99.65% and 98.99% and 99.51%
same,% Confluency,"[1]; MCF7 CDK4 WT/D99N CL4, 100nM Palbociclib, 192 Hours",99.96% and 99.76% and 99.95%
same,% Confluency,"[1]; MCF7 CDK4 WT/D99N CL4, 100nM Palbociclib, 204 Hours",99.99% and 99.85%
same,% Confluency,"[1]; MCF7 CDK4 WT/D99N CL4, 100nM Palbociclib, 216 Hours",99.99% and 99.94% and 99.96%
same,% Confluency,"[1]; MCF7 CDK4 WT/D99N CL4, 100nM Palbociclib, 228 Hours",99.97% and 99.94% and 99.91%
same,% Confluency,"[1]; MCF7 CDK4 WT/D99N CL4, 100nM Palbociclib, 240 Hours",99.95% and 99.92% and 99.93%
same,% Confluency,"[1]; MCF7 CDK4 WT/D99N CL4, 100nM Palbociclib, 252 Hours",99.96% and 99.93%
same,% Confluency,"[1]; MCF7 CDK4 WT/D99N CL4, 500nM Palbociclib, 120 Hours",40.34% and 66.78% and 58.85%
same,% Confluency,"[1]; MCF7 CDK4 WT/D99N CL4, 500nM Palbociclib, 132 Hours",50.29% and 74.63% and 71.04%
same,% Confluency,"[1]; MCF7 CDK4 WT/D99N CL4, 500nM Palbociclib, 144 Hours",61.64% and 76.28% and 83.21%
same,% Confluency,"[1]; MCF7 CDK4 WT/D99N CL4, 500nM Palbociclib, 156 Hours",70.40% and 81.62% and 90.78%
same,% Confluency,"[1]; MCF7 CDK4 WT/D99N CL4, 500nM Palbociclib, 168 Hours",83.18% and 86.41% and 91.67%
same,% Confluency,"[1]; MCF7 CDK4 WT/D99N CL4, 500nM Palbociclib, 180 Hours",94.98% and 90.78% and 94.80%
same,% Confluency,"[1]; MCF7 CDK4 WT/D99N CL4, 500nM Palbociclib, 192 Hours",98.48% and 93.58% and 97.95%
same,% Confluency,"[1]; MCF7 CDK4 WT/D99N CL4, 500nM Palbociclib, 204 Hours",99.63% and 95.39% and 99.23%
same,% Confluency,"[1]; MCF7 CDK4 WT/D99N CL4, 500nM Palbociclib, 216 Hours",99.86% and 96.33% and 99.61%
same,% Confluency,"[1]; MCF7 CDK4 WT/D99N CL4, 500nM Palbociclib, 228 Hours",99.80% and 97.19% and 99.65%
same,% Confluency,"[1]; MCF7 CDK4 WT/D99N CL4, 500nM Palbociclib, 240 Hours",99.69% and 97.59% and 99.70%
same,% Confluency,"[1]; MCF7 CDK4 WT/D99N CL4, 500nM Palbociclib, 252 Hours",99.67% and 98.11% and 99.79%
same,% Confluency,"[1]; MCF7 CDK4 WT/D99N CL4, 1000nM Palbociclib, 132 Hours",33.69% and 63.26% and 52.80%
same,% Confluency,"[1]; MCF7 CDK4 WT/D99N CL4, 1000nM Palbociclib, 144 Hours",40.24% and 66.75% and 64.14%
same,% Confluency,"[1]; MCF7 CDK4 WT/D99N CL4, 1000nM Palbociclib, 156 Hours",46.30% and 72.91% and 73.04%
same,% Confluency,"[1]; MCF7 CDK4 WT/D99N CL4, 1000nM Palbociclib, 168 Hours",55.90% and 78.03% and 74.78%
same,% Confluency,"[1]; MCF7 CDK4 WT/D99N CL4, 1000nM Palbociclib, 180 Hours",72.92% and 83.25% and 82.01%
same,% Confluency,"[1]; MCF7 CDK4 WT/D99N CL4, 1000nM Palbociclib, 192 Hours",83.09% and 86.79% and 89.83%
same,% Confluency,"[1]; MCF7 CDK4 WT/D99N CL4, 1000nM Palbociclib, 204 Hours",89.65% and 89.84% and 94.66%
same,% Confluency,"[1]; MCF7 CDK4 WT/D99N CL4, 1000nM Palbociclib, 216 Hours",95.08% and 91.46% and 96.59%
same,% Confluency,"[1]; MCF7 CDK4 WT/D99N CL4, 1000nM Palbociclib, 228 Hours",97.92% and 92.07% and 97.14%
same,% Confluency,"[1]; MCF7 CDK4 WT/D99N CL4, 1000nM Palbociclib, 240 Hours",98.97% and 92.82% and 97.47%
same,% Confluency,"[1]; MCF7 CDK4 WT/D99N CL4, 1000nM Palbociclib, 252 Hours",99.08% and 93.26% and 97.80%
same,% Confluency,"[2]; MCF7 CDK4 D99N/D99N CL1, 50nM Palbociclib, 120 Hours",56.30% and 75.92% and 82.07%
same,% Confluency,"[2]; MCF7 CDK4 D99N/D99N CL1, 50nM Palbociclib, 132 Hours",68.72% and 87.36% and 92.94%
same,% Confluency,"[2]; MCF7 CDK4 D99N/D99N CL1, 50nM Palbociclib, 144 Hours",80.22% and 91.82% and 97.58%
same,% Confluency,"[2]; MCF7 CDK4 D99N/D99N CL1, 50nM Palbociclib, 156 Hours",90.24% and 95.10% and 99.34%
same,% Confluency,"[2]; MCF7 CDK4 D99N/D99N CL1, 50nM Palbociclib, 168 Hours",95.38% and 98.19% and 99.46%
same,% Confluency,"[2]; MCF7 CDK4 D99N/D99N CL1, 50nM Palbociclib, 180 Hours",98.50% and 99.17% and 99.89%
same,% Confluency,"[2]; MCF7 CDK4 D99N/D99N CL1, 50nM Palbociclib, 192 Hours",99.47% and 99.71% and 99.97%
same,% Confluency,"[2]; MCF7 CDK4 D99N/D99N CL1, 50nM Palbociclib, 204 Hours",99.43% and 99.93% and 99.98%
same,% Confluency,"[2]; MCF7 CDK4 D99N/D99N CL1, 50nM Palbociclib, 216 Hours",99.14% and 99.96% and 99.98%
same,% Confluency,"[2]; MCF7 CDK4 D99N/D99N CL1, 50nM Palbociclib, 228 Hours",99.10% and 99.94% and 99.96%
same,% Confluency,"[2]; MCF7 CDK4 D99N/D99N CL1, 50nM Palbociclib, 240 Hours",98.90% and 99.89% and 99.97%
same,% Confluency,"[2]; MCF7 CDK4 D99N/D99N CL1, 50nM Palbociclib, 252 Hours",98.78% and 99.85% and 99.95%
same,% Confluency,"[2]; MCF7 CDK4 D99N/D99N CL1, 100nM Palbociclib, 120 Hours",70.85% and 74.82% and 74.98%
same,% Confluency,"[2]; MCF7 CDK4 D99N/D99N CL1, 100nM Palbociclib, 132 Hours",80.29% and 85.81% and 87.39%
same,% Confluency,"[2]; MCF7 CDK4 D99N/D99N CL1, 100nM Palbociclib, 144 Hours",91.16% and 90.47% and 96.08%
same,% Confluency,"[2]; MCF7 CDK4 D99N/D99N CL1, 100nM Palbociclib, 156 Hours",97.93% and 94.16% and 98.43%
same,% Confluency,"[2]; MCF7 CDK4 D99N/D99N CL1, 100nM Palbociclib, 168 Hours",99.60% and 97.45% and 98.44%
same,% Confluency,"[2]; MCF7 CDK4 D99N/D99N CL1, 100nM Palbociclib, 180 Hours",99.73% and 99.84% and 99.14%
same,% Confluency,"[2]; MCF7 CDK4 D99N/D99N CL1, 100nM Palbociclib, 192 Hours",99.80% and 99.97% and 99.81%
same,% Confluency,"[2]; MCF7 CDK4 D99N/D99N CL1, 100nM Palbociclib, 204 Hours",99.84% and 99.98% and 99.94%
same,% Confluency,"[2]; MCF7 CDK4 D99N/D99N CL1, 100nM Palbociclib, 216 Hours",99.70% and 99.96% and 99.94%
same,% Confluency,"[2]; MCF7 CDK4 D99N/D99N CL1, 100nM Palbociclib, 228 Hours",99.59% and 99.90% and 99.91%
same,% Confluency,"[2]; MCF7 CDK4 D99N/D99N CL1, 100nM Palbociclib, 240 Hours",99.43% and 99.87% and 99.89%
same,% Confluency,"[2]; MCF7 CDK4 D99N/D99N CL1, 100nM Palbociclib, 252 Hours",99.47% and 99.88% and 99.89%
same,% Confluency,"[2]; MCF7 CDK4 D99N/D99N CL1, 500nM Palbociclib, 120 Hours",55.43% and 56.21% and 51.96%
same,% Confluency,"[2]; MCF7 CDK4 D99N/D99N CL1, 500nM Palbociclib, 132 Hours",60.37% and 67.49% and 61.66%

# — article PMC12528448, “Resistance to CDK7 inhibitors directed by acquired mutation of a conserved residue in cancer cells” (The EMBO Journal, 2025)
